Results are given in words; binding and its absence hold for the method and conditions named. Binding seen in cells or lysates may run through a third protein. Some entries that bind do so weakly or less than the wild type. Sequences can lack the tags named with a protein.
T1: Coil domain of PDCD11 (Flag-Coil) (human) (UniProt Q14690)
T1 sequence: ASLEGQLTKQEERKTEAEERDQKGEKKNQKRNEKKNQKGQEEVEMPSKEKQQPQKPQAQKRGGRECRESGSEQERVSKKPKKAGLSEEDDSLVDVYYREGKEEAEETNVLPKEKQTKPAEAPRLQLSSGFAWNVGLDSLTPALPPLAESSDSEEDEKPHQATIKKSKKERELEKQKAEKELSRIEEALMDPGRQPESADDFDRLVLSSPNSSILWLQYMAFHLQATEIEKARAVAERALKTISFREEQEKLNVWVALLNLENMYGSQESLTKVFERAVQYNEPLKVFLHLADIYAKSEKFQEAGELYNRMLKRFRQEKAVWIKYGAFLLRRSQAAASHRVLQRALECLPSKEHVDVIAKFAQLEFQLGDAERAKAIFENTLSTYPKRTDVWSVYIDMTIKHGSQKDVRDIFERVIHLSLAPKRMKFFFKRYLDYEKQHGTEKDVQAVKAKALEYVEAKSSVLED

Amino acid sequences for entries named in this document (tags omitted).
UniProt Q04206: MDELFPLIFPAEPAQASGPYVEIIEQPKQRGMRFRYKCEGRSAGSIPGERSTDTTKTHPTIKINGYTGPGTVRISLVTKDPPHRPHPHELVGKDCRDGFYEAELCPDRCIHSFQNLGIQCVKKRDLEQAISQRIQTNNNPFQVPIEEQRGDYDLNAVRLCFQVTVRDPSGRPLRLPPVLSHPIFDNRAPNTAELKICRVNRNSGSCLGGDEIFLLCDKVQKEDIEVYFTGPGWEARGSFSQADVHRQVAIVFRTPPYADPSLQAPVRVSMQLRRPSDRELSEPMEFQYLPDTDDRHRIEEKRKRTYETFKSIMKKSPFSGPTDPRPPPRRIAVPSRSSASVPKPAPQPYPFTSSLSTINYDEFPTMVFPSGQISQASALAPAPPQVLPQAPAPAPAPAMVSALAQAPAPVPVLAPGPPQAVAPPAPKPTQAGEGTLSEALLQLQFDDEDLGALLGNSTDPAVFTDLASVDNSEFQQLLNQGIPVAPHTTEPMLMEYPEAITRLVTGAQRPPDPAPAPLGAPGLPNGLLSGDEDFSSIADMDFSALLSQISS

B1: c-Rel-GFP (protein, UniProt Q04864 1-619)
chain: MASGAYNPYIEIIEQPRQRGMRFRYKCEGRSAGSIPGEHSTDNNRTYPSIQIMNYYGKGKVRITLVTKNDPYKPHPHDLVGKDCRDGYYEAEFGQERRPLFFQNLGIRCVKKKEVKEAIITRIKAGINPFNVPEKQLNDIEDCDLNVVRLCFQVFLPDEHGNLTTALPPVVSNPIYDNRAPNTAELRICRVNKNCGSVRGGDEIFLLCDKVQKDDIEVRFVLNDWEAKGIFSQADVHRQVAIVFKTPPYCKAITEPVTVKMQLRRPSDQEVSESMDFRYLPDEKDTYGNKAKKQKTTLLFQKLCQDHVETGFRHVDQDGLELLTSGDPPTLASQSAGITVNFPERPRPGLLGSIGEGRYFKKEPNLFSHDAVVREMPTGVSSQAESYYPSPGPISSGLSHHASMAPLPSSSWSSVAHPTPRSGNTNPLSSFSTRTLPSNSQGIPPFLRIPVGNDLNASNACIYNNADDIVGMEASSMPSADLYGISDPNMLSNCSVNMMTTSSDSMGETDNPRLLSMNLENPSCNSVLDPRDLRQLHQMSSSSMSAGANSNTTVFVSQSDAFEGSDFSCADNSMINESGPSNSTNPNSHGFVQDSQYSGIGSMQNEQLSDSFPYEFFQV

Target: T1, Coil domain of PDCD11 (Flag-Coil) (human)
Assay: co-IP; co-transfected cells lysed 48 h after transfection in RIPA buffer (50 mM Tris, 150 mM NaCl, 10% glycerol, 5 mM MgCl2, 0.5% NP40, protease inhibitor); anti-Flag agarose, 4 °C overnight; western blot (anti-GFP, anti-Flag)

Row | Molecule | binding
1 | P65-GFP (from UniProt Q04206 1-551) | binds
2 | B1 | binds
